The values below come from PMC4600748.

Amino acid sequences for entries named in this document (tags omitted). Residues count along the entry.
UniProt Q00657, residues 30-2326: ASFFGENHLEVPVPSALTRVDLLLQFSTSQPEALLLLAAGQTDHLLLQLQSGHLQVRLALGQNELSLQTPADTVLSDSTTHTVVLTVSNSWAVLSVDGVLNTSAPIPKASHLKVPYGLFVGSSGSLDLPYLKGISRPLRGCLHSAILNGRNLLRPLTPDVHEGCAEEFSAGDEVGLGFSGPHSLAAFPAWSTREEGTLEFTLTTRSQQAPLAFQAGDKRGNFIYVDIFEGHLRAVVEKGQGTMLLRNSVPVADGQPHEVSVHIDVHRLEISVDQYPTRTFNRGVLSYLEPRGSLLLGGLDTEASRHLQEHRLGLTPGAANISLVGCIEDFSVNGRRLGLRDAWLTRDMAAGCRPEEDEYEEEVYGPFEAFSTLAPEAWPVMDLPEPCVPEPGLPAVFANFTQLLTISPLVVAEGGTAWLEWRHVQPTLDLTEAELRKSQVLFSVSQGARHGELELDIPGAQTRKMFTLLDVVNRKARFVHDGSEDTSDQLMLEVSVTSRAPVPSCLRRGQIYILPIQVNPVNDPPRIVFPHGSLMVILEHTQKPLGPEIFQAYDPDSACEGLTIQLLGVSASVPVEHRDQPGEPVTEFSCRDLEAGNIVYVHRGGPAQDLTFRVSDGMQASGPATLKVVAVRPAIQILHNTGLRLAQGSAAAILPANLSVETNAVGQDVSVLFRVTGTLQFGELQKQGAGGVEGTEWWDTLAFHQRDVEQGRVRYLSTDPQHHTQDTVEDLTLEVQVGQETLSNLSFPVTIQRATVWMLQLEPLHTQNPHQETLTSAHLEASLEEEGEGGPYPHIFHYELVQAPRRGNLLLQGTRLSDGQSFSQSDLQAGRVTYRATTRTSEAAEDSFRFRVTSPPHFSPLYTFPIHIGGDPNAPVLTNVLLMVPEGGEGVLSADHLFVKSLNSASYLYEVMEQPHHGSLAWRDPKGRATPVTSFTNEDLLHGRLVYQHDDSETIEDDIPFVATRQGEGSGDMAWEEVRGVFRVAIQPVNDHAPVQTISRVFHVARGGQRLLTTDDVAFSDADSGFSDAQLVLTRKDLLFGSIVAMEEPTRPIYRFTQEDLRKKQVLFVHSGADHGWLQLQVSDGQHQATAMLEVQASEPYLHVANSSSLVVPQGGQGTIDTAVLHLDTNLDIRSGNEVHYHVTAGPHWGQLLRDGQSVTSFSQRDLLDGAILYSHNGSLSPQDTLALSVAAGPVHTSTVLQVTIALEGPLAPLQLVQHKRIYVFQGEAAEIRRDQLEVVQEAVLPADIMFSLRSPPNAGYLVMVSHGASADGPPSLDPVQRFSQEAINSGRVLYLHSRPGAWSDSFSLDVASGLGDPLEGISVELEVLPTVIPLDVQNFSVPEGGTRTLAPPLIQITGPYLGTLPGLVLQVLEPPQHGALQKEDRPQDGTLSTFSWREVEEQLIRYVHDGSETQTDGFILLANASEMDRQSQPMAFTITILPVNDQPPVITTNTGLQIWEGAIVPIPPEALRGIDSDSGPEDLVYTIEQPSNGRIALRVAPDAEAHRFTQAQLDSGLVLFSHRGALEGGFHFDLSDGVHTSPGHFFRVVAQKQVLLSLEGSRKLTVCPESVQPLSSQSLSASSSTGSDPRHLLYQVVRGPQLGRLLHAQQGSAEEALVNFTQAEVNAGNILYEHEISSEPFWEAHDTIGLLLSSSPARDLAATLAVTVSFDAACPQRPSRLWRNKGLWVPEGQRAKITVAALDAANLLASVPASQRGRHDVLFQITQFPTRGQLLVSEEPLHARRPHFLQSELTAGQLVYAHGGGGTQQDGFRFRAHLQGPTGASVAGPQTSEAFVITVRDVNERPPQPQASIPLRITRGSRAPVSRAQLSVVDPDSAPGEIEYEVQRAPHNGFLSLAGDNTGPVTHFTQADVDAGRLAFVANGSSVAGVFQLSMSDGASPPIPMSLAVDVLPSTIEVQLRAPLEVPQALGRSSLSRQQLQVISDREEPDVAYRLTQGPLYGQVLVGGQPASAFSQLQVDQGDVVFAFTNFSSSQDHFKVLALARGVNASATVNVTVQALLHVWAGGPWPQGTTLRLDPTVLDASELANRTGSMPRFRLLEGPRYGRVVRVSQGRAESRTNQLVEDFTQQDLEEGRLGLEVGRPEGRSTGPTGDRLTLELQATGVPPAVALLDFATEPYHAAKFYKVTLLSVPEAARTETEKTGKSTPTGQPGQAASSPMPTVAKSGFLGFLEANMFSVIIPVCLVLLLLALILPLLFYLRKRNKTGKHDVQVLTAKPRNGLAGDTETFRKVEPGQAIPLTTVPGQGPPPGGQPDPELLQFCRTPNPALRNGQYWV

No constants are given. Whether binding was seen depends on the method and setting. Binding seen in cells or lysates may run through a third protein. Some results given as binding are weak or reduced against the parent protein; the word gives no strength. For some assays here: Tags and fused reporters may be left off the sequences shown.

The target in experiment [1] is NG2, full-length, overexpressed (UniProt Q00657). In words: co-IP; beads coupled to NG2-specific antibodies incubated with lysates of HEK293T cells overexpressing full-length NG2 and HA-tagged Stonin1 variants; immunoblot with NG2 and HA antibodies. (In general: Immunoblotting shows a protein as a band on a membrane.)
For experiment [2], the target named is T1, Stonin1, endogenous (mouse lung) (mouse (endogenous in lung)) (UniProt Q8CDJ8).
T1 sequence: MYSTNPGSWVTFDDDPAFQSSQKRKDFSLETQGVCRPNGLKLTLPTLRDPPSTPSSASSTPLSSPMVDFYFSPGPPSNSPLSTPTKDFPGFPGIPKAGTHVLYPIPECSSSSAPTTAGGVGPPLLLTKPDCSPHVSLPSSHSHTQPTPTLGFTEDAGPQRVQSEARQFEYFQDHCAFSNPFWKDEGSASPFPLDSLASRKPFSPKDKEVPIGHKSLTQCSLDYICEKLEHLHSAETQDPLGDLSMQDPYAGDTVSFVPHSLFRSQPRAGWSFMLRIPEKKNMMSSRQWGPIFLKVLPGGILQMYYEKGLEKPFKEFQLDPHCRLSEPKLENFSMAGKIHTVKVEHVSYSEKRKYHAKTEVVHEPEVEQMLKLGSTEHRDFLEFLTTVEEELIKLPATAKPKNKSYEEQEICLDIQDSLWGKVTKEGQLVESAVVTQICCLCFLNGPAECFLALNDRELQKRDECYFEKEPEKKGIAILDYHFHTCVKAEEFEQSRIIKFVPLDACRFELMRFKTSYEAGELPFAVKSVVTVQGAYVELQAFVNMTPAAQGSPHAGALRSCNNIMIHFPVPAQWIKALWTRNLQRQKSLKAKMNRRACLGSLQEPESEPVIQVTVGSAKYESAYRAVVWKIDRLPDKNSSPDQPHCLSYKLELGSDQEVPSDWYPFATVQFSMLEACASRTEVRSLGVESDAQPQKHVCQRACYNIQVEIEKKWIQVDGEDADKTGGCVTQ
The experiment can be described thus: co-IP; bead-coupled Stonin1-specific antibodies incubated with WT and Stonin1-/- mouse lung lysate, 1-4 h at 4 °C; immunoblot.

B1: HA-tagged Stonin1-μHD (Stonin1-405-730) (domain or fragment, UniProt Q8CDJ8 405-730)
chain: YEEQEICLDIQDSLWGKVTKEGQLVESAVVTQICCLCFLNGPAECFLALNDRELQKRDECYFEKEPEKKGIAILDYHFHTCVKAEEFEQSRIIKFVPLDACRFELMRFKTSYEAGELPFAVKSVVTVQGAYVELQAFVNMTPAAQGSPHAGALRSCNNIMIHFPVPAQWIKALWTRNLQRQKSLKAKMNRRACLGSLQEPESEPVIQVTVGSAKYESAYRAVVWKIDRLPDKNSSPDQPHCLSYKLELGSDQEVPSDWYPFATVQFSMLEACASRTEVRSLGVESDAQPQKHVCQRACYNIQVEIEKKWIQVDGEDADKTGGCVTQ
For the molecule B1, the binding result in experiment [1] is recorded as “binds”.

B2: vinculin, endogenous (mouse lung) (protein, UniProt Q64727 1-1066)
chain: MPVFHTRTIESILEPVAQQISHLVIMHEEGEVDGKAIPDLTAPVAAVQAAVSNLVRVGKETVQTTEDQILKRDMPPAFIKVENACTKLVQAAQMLQSDPYSVPARDYLIDGSRGILSGTSDLLLTFDEAEVRKIIRVCKGILEYLTVAEVVETMEDLVTYTKNLGPGMTKMAKMIDERQQELTHQEHRVMLVNSMNTVKELLPVLISAMKIFVTTKNSKNQGIEEALKNRNFTVEKMSAEINEIIRVLQLTSWDEDAWASKDTEAMKRALASIDSKLNQAKGWLRDPNASPGDAGEQAIRQILDEAGKVGELCAGKERREILGTCKMLGQMTDQVADLRARGQGASPVAMQKAQQVSQGLDVLTAKVENAARKLEAMTNSKQSIAKKIDAAQNWLADPNGGPEGEEQIRGALAEARKIAELCDDPKERDDILRSLGEIAALTSKLGDLRRQGKGDSPEARALAKQVATALQNLQTKTNRAVANSRPAKAAVHLEGKIEQAQRWIDNPTVDDRGVGQAAIRGLVAEGHRLANVMMGPYRQDLLAKCDRVDQLTAQLADLAARGEGESPQARALASQLQDSLKDLKAQMQEAMTQEVSDVFSDTTTPIKLLAVAATAPPDAPNREEVFDERAANFENHSGRLGATAEKAAAVGTANKSTVEGIQASVKTARELTPQVISAARILLRNPGNQAAYEHFETMKNQWIDNVEKMTGLVDEAIDTKSLLDASEEAIKKDLDKCKVAMANIQPQMLVAGATSIARRANRILLVAKREVENSEDPKFREAVKAASDELSKTISPMVMDAKAVAGNISDPGLQKSFLDSGYRILGAVAKVREAFQPQEPDFPPPPPDLEQLRLTDELAPPKPPLPEGEVPPPRPPPPEEKDEEFPEQKAGEVINQPMMMAARQLHDEARKWSSKGNDIIAAAKRMALLMAEMSRLVRGGSGTKRALIQCAKDIAKASDEVTRLAKEVAKQCTDKRIRTNLLQVCERIPTISTQLKILSTVKATMLGRTNISDEESEQATEMLVHNAQNLMQSVKETVREAEAASIKIRTDAGFTLRWVRKTPWYQ
B2: the binding entry in experiment [2] is “binds”.
